# Library screening results

Source: ChEMBL document CHEMBL3988442, “University of Dundee, Small-Polar-MMV Screening Library” (2021).

Values are the deposited “Percent Effect”, in %.
The controls that fix the scale are not given in the record; negative values are as filed.
This is an unselected part of the compounds tested.

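Whole-cell assay for inhibitors of Mycobacterium tuberculosis growth, labelled Cornell in the record; the read-out is not stated. The concentration is filed as 10 mM, unlikely as a test dose, so the dose is not known. Higher means stronger inhibition (inferred from two other growth screens of the library). Size under these conditions: about 53,000 compounds, about 900 of them at 50% or above in at least one test.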

compound | effect
CC(C)c1ncc(CN2CCOC(C(=O)Nc3ccccc3)C2)cn1 (stereo not shown) | -3.657
CCOCCN1CCN(Cc2nnc(-c3occc3C)o2)CC1CC (stereo not shown) | 0.03358
Cc1cnn(CC2CCCN2Cc2coc(-c3ccc(F)cc3)n2)c1 (stereo not shown) | 29.07
CCOc1c(Br)cc(/C=C/c2ncc(C(=O)O)s2)cc1OC | -18.97
COc1ccc(C2CNCCN2C(=O)c2cccc3ncccc23)cc1 (stereo not shown) | 7.59
CC(C)(C)c1ncc(C(=O)NCc2cccc(C(=O)N3CCCC3)c2)s1 | 2.115
CC(C)(C)c1cnc(CN(Cc2cccnc2)CC2CCCO2)o1 (stereo not shown) | 0.5516
CC(C)(C)n1ncc(C(=O)NCCCC(N)=O)c1C(F)(F)F | -1.715
c1cc(CCNc2ncnc3c2CCN(Cc2ccoc2)CC3)ccn1 | -7.534
COc1ccc(Cl)cc1-c1cc(NC(=O)C2CNC(=O)N2)[nH]n1 (stereo not shown) | -1.083
O=C(O)C(F)(F)F.O=C(c1nc2c(o1)CN(CC1CC1)C2)N1CCCC1 | 39.72
Cc1nc(COc2cccc(C#N)c2)no1 | 9.73
CC[C@@H]1N(Cc2cccnc2)CCC[C@]12CCC(=O)N2C.O=C(O)C(F)(F)F.O=C(O)C(F)(F)F | 30.02
COCCSc1ccc(C(C)NC(=O)Nc2cn[nH]c2)cc1 (stereo not shown) | 13.28
COc1ccc(CCC(C)Nc2cccc(SC)c2)cc1 (stereo not shown) | -4.978
CN(C)c1nccc(C2CN(S(C)(=O)=O)C2)n1 | -9.351
Cn1cc(C[C@H]2[C@@H](O)CCN2C(=O)C2CC=CC2)cn1 | 6.106
CN(Cc1ccc(C#N)cc1)C(=O)c1ccnc(OC2CCC2)c1 | -34.4
CN(C)C(=O)CO[C@H]1COCCN(C2CCOCC2)C1 | -1.106
CS(=O)(=O)NCc1noc2c1CN(C(=O)c1ccsc1)CC2 | -29.98
COCCCn1c(CN2CCCC(O)C2)cnc1S(=O)(=O)C1CCCC1 (stereo not shown) | -10.69
O=C(O)C(F)(F)F.O=C(O)C(F)(F)F.[H][C@@]12CN(Cc3cccs3)CCC[C@]1(C(=O)OCC)CN(C(C)C)C2 | 18.18
COCCN1CCc2c(c(COc3cccnc3)nn2C)C1.O=C(O)C(F)(F)F.O=C(O)C(F)(F)F | 9.079
CC(C)(C)C(=O)NCC(=O)NC1CC(c2cccc(Cl)c2)C1 (stereo not shown) | 3.242
CNc1nc(C(=O)N2CCC3(CCCN(CCOC)C3=O)C2)cs1 (stereo not shown) | -34.92
CN(Cc1ccc([S+](C)[O-])cc1)c1ccccn1 (stereo not shown) | -0.00763
CCn1cc(S(=O)(=O)N2CCN(C(=O)c3cc(Br)cs3)CC2)c(C)n1 | 6.809
[H][C@@]12CS(=O)(=O)C[C@]1([H])N(C(=O)Nc1ccc(Cl)cc1)CCN2C(C)=O | 0.3524
CCOc1ccc(C(F)(F)F)cc1NCc1cc(C)on1 | -10.58
O=C(CN1C(=O)c2ccccc2CS1(=O)=O)c1ccccc1 | 23.97
O=C(CCc1nccs1)N1CCCC(N2CCNC2=O)C1 (stereo not shown) | -47.59
Cc1nc(COCc2cnc3n2CCN(C2CCC2)C3C)cs1.O=C(O)C(F)(F)F (stereo not shown) | 30.25
O=c1c2cccnc2ccn1Cc1nccn1C1CC1 | -13.39
Cn1cccc1C(=O)N1CCCC2(CCCN2S(C)(=O)=O)C1 (stereo not shown) | -14.71
c1ccc(-n2ccc(CN3CCCC(Cn4cncn4)C3)n2)cc1 (stereo not shown) | 2.097
Cc1ccc(N2CCCC3(COCCN(c4nccs4)C3)C2)nn1.O=C(O)C(F)(F)F.O=C(O)C(F)(F)F (stereo not shown) | 20.96
CN(Cc1cn[nH]c1-c1ccc(F)cc1)C(=O)CCC1CC1 | 37.04
CC(C)c1nncn1CCNC(=O)c1c(O)cc(F)cc1F | 18.05
CCc1noc(CCC(=O)N[C@@H]2CC[C@@H](n3ccnc3C)[C@@H]2O)n1 | 5.612
Cc1nc(N)nc(C)c1CC(=O)N1CCC2(CC1)OCCCC2O (stereo not shown) | -9.88
Cc1nc(CN2CCN(C3CCOC3)Cc3cccnc32)cs1.O=C(O)C(F)(F)F.O=C(O)C(F)(F)F.O=C(O)C(F)(F)F (stereo not shown) | 27.74
COc1ccc(-c2cnc(N)nc2C2CCCNC2)cc1.Cl (stereo not shown) | 57.74
CCc1ccccc1OCC(=O)Nc1ccnc(OCCN(C)C)c1 | -27.25
O=C(O)C(F)(F)F.O=C(O)C(F)(F)F.[H][C@@]12COC[C@]1(CNC(=O)c1ccsc1)CN(Cc1cccnc1)C2 | 14.16
Cc1c(C(=O)N2CC(C)(C)C2(C)C)nnn1-c1cccc2cnccc12 | -5.541
Cc1c(F)cc(C(=O)O)cc1S(=O)(=O)Nc1ccc(F)c(C#N)c1 | 5.088
COc1cccc(OCC2CCCN(C(=O)CCCn3cccn3)C2)c1 (stereo not shown) | 10.35
CCOCC(=O)N1CCC(c2nccn2Cc2cscn2)CC1 | 2.734
[H][C@]12CC[C@]([H])(CN(C(=O)c3ccncc3)C1)N(C(=O)N1CCOCC1)C2 | -1.825
NC(=O)C(Nc1ccc(Cl)cc1)c1ccc(F)cc1 (stereo not shown) | 27.64
CC(C)c1cnc(CN2CCCC(c3cc(C(N)=O)[nH]n3)C2)o1 (stereo not shown) | 16.14
CCn1cc(NC(=O)C2CCN(Cc3nc(C)c(C)s3)CC2)cn1 | 3.409
Cc1ccc(C(=O)N2CCC(c3n[nH]c(C4CC4)n3)CC2)cc1F | 11.44
Cc1noc(C)c1CN(C)C(=O)CCn1c(=O)n(C)c2ccccc21 | -8.261
O=C(NCc1cc[nH]n1)N1CCN(c2ncccn2)CC1 | -4.767
CN(Cc1ccncc1)CC1CCCN(CCc2ccc(Cl)cc2)C1 (stereo not shown) | -7.24
Cc1ccnc(C(Nc2nccc(-c3ccc(C)nc3C)n2)C2CC2)c1 (stereo not shown) | 17.05
CN(CC(=O)Nc1nc2c(s1)CCC2)C(=O)c1cccs1 | -9.133
CC(C)Cc1nc(OCC(=O)O)c(C#N)c2c1CCCC2 | -24.64
CC1CCCCN1C(=O)c1nc2c(n1C(C)C)CCN(C)C2.O=C(O)C(F)(F)F (stereo not shown) | 23.66
Cn1ccc2c(C(=O)NCCCN3CCOCC3)cccc21 | -6.428
CC(C)Nc1ncnc2c1CCN(Cc1nccn1C)CC2.O=C(O)C(F)(F)F.O=C(O)C(F)(F)F | -4.678
O=C(NC1CCCCC1)C1CCCN(C(=O)Nc2ccccn2)C1 (stereo not shown) | 26.23
CC(C)CC(=O)N1CCC2(CC1)OCCO2 | -13.83
[H][C@@]12CCN(Cc3ccco3)[C@]1([H])CC[C@@H](C(=O)NCc1cnc(C)cn1)O2 | 9.883
[H][C@@]12CCN(Cc3ccoc3)[C@]1([H])CC[C@H](C(=O)NCC1CC1)O2 | 8.543
CCC(=O)c1ccccc1NN1c2ccccc2C(=O)C1(C)OC (stereo not shown) | 13.72

For reference, 7 entries once more:

| compound | effect |
|---|---|
| `COCCCn1c(CN2CCCC(O)C2)cnc1S(=O)(=O)C1CCCC1` (stereo not shown) | -10.69 |
| `CC(C)c1ncc(CN2CCOC(C(=O)Nc3ccccc3)C2)cn1` (stereo not shown) | -3.657 |
| `COCCN1CCc2c(c(COc3cccnc3)nn2C)C1.O=C(O)C(F)(F)F.O=C(O)C(F)(F)F` | 9.079 |
| `COc1ccc(-c2cnc(N)nc2C2CCCNC2)cc1.Cl` (stereo not shown) | 57.74 |
| `CC(C)(C)n1ncc(C(=O)NCCCC(N)=O)c1C(F)(F)F` | -1.715 |
| `CC(C)c1cnc(CN2CCCC(c3cc(C(N)=O)[nH]n3)C2)o1` (stereo not shown) | 16.14 |
| `Cc1ccc(C(=O)N2CCC(c3n[nH]c(C4CC4)n3)CC2)cc1F` | 11.44 |